PubChem BioAssay AID1259254 – NCATS, 2017
The deposit covers about 59,000 reagents; below is an unselected part. About 1,550 of them (2.6%) were called active. 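G2 share is only a proxy for re-replication; each gene was hit by three separate siRNAs, and active genes were retested.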 The numbers tell different reagents against one gene apart. Not all columns of the deposit are shown. The record does not give: the amount of reagent.

- Screen: 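Genome-wide screen for genes that prevent DNA re-replication in cancer cells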 (primary screen)
- System: human HCT116 colorectal cancer cells
- Reagent: single siRNA against human genes
- Timing: 3 days
- Measurement: 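Imaged Hoechst DNA stain sorts each cell into a cycle phase by DNA amount; per plate, G2 fraction set to 0% for non-targeting and 100% for GMNN siRNA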
- Direction: G2 robust z-score and G2 cells, % of GMNN control: higher = more G2 cells, more excess DNA replication
- Active means: 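An siRNA counts as active if its G2 robust z-score lies at least 5 MADs above the screen median; here such calls match roughly 38% of GMNN control or more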

SMG7-AS1 #1 showed G2 robust z-score 0.207; G2 cells, % of GMNN control 4.42; inactive.
With knock-down of SMG7-AS1 #2, the screen gave G2 robust z-score -0.272; G2 cells, % of GMNN control 1.05; inactive.
SMG7-AS1 #3 gave G2 robust z-score 1.04; G2 cells, % of GMNN control 10.3; inactive.
For OR9I1 #1, the entry reads G2 robust z-score 0.054; G2 cells, % of GMNN control 3.35; inactive.
With knock-down of OR9I1 #2, the record shows G2 robust z-score 2.04; G2 cells, % of GMNN control 17.3; inactive.
For OR9I1 #3, the entry reads G2 robust z-score -0.217; G2 cells, % of GMNN control 1.44; inactive.
Knock-down of STAG1 #1 came out at: G2 robust z-score -0.543; G2 cells, % of GMNN control -0.855; inactive.
STAG1 #2 scored G2 robust z-score -0.405; G2 cells, % of GMNN control 0.116; inactive.
Silencing of STAG1 #3 gave: G2 robust z-score -0.769; G2 cells, % of GMNN control -2.44; inactive.
Depletion of KANK4 #1 resulted in: G2 robust z-score 0.176; G2 cells, % of GMNN control 4.21; inactive.
Depletion of KANK4 #2 resulted in: G2 robust z-score 1.66; G2 cells, % of GMNN control 14.6; inactive.
Depletion of KANK4 #3 resulted in: G2 robust z-score -0.913; G2 cells, % of GMNN control -3.46; inactive.
Depletion of RAPGEF5 #1 gave: G2 robust z-score -0.548; G2 cells, % of GMNN control -0.885; inactive.
Against RAPGEF5 #2, the values are G2 robust z-score 0.341; G2 cells, % of GMNN control 5.37; inactive.
RAPGEF5 #3 gave G2 robust z-score 0.284; G2 cells, % of GMNN control 4.96; inactive.
Depletion of RAD51 #1 came out at: G2 robust z-score 1.1; G2 cells, % of GMNN control 10.7; inactive.
Depletion of RAD51 #2 resulted in: G2 robust z-score 0.723; G2 cells, % of GMNN control 8.06; inactive.
For RAD51 #3 the deposit lists G2 robust z-score 1.42; G2 cells, % of GMNN control 13; inactive.
Against TXNL4B #1, the values are G2 robust z-score 0.202; G2 cells, % of GMNN control 4.39; inactive.
For TXNL4B #2, the entry reads G2 robust z-score -1.22; G2 cells, % of GMNN control -5.63; inactive.
For TXNL4B #3 the deposit lists G2 robust z-score 3.44; G2 cells, % of GMNN control 27.2; inactive.
Against FGD4 #1 the deposit lists G2 robust z-score -1.56; G2 cells, % of GMNN control -7.99; inactive.
Against FGD4 #2 the deposit lists G2 robust z-score 0.229; G2 cells, % of GMNN control 4.58; inactive.
FGD4 #3 showed G2 robust z-score 0.596; G2 cells, % of GMNN control 7.16; inactive.

2 successive entries from above, quoted:
RAPGEF5 #2 — G2 robust z-score: 0.341; G2 cells, % of GMNN control: 5.37; outcome: inactive
RAPGEF5 #3 — G2 robust z-score: 0.284; G2 cells, % of GMNN control: 4.96; outcome: inactive
